Measurements reported in paper PMC7819943, “Rice protein-binding microarrays: a tool to detect cis-acting elements near promoter regions in rice”.
This is one part of the list.

molecular target: T1, OsSMF1 (Oryza sativa, UniProt Q6ZLB0 1-436); test: protein-binding microarray (RPBM); PBS, 2% BSA, 51.3 ng/ul salmon testes DNA, 50 uM zinc acetate, 200 nM TF, 25 C, 1 h; high values mean tight binding; conditions: protein: recombinant; tags: N-terminal polyhistidine and DsRed monomer fusion (pET32a); chain copies: 2; label: CyDye5-dUTP incorporated in the synthesized complementary strand; 3' TTTTT single-stranded linker to array surface; dsDNA, one strand shown
T1 sequence: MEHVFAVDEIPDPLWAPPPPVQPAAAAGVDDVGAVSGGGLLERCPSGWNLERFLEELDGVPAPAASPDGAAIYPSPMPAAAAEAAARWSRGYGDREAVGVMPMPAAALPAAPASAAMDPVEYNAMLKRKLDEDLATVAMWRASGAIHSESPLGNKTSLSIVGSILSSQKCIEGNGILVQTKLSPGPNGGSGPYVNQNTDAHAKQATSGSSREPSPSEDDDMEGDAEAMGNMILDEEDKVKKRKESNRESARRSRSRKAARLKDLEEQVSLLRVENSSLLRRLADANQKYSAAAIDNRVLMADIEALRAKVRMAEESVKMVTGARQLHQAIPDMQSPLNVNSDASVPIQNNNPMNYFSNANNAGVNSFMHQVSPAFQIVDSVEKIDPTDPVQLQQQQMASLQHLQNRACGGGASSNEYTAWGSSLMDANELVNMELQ
Summary of the method: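 Polyhistidine-tagged DsRed fusions of transcription factors, joined at the N-terminus, were expressed in E. coli BL21-CodonPlus and isolated on Ni–NTA. They were incubated at 200 nM for 1 h at 25 °C on a custom Agilent array, double-stranded and BSA-blocked, in PBS with 2% BSA, salmon testes DNA and 50 µM zinc acetate. The binding signal is per-feature fluorescence intensity (arbitrary units) read on an Axon 4000B scanner after washing.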

Sequence	binding signal
AATGCTGACCGTGAGTCCACGAGCGCCGCCGATGCGGATGCGGAGTCACCTAGTGCAG	3220 fluorescence intensity (a.u.)
CATGGTGGACGACGACTCTAGCTGTCACGTAGCTCGGTCGCGGAGTCACCTAGTGCAG	3140 fluorescence intensity (a.u.)
CCATCCACCGACGCACCCTCCCGTCCACGTGCCTCCGCTGCGGAGTCACCTAGTGCAG	3430 fluorescence intensity (a.u.)
ATGTATTGGATCCATCTGTACTCCATTATCACGCACGCCTCGGAGTCACCTAGTGCAG	8570 fluorescence intensity (a.u.)
AGAGAAGACGCATAATAAATTTACCGTGTCGGTGTGATTACGGAGTCACCTAGTGCAG	3190 fluorescence intensity (a.u.)
CTTTCTGATGTGTCAAGCGGCATCTCTGATCTTCTTTCTGCGGAGTCACCTAGTGCAG	3900 fluorescence intensity (a.u.)
AGGAAGATGGGTTGAGCCCACTTTAGTTGTCAGTAGTGGTCGGAGTCACCTAGTGCAG	3730 fluorescence intensity (a.u.)
TCCTTCGATTCCAAGCATATAGTAATATATGACACGATGCCGGAGTCACCTAGTGCAG	5000 fluorescence intensity (a.u.)
GGCCTGTCGTACAAGCCGCTTTGCTTGGGCATACAAGCAACGGAGTCACCTAGTGCAG	65100 fluorescence intensity (a.u.)
CGAGAAGGATGTGGTTCGCCGATGCCACGCTTCTAGAGGACGGAGTCACCTAGTGCAG	3490 fluorescence intensity (a.u.)
ACCATTGCGGGTGCCCTTAGATCATCAGGTGTCACGGCCACGGAGTCACCTAGTGCAG	3700 fluorescence intensity (a.u.)
AGATTCCAAGAAGAATGAATAGAAAACAGTGGTAGATCGACGGAGTCACCTAGTGCAG	26600 fluorescence intensity (a.u.)
AATGGGGCTATAGGTAATTATGCTTAGAAGTCCGGTTCATCGGAGTCACCTAGTGCAG	5130 fluorescence intensity (a.u.)
GACGCGCTCGACGCCGCGGCGCGCGCCTCAGTTTGAGCTGCGGAGTCACCTAGTGCAG	17300 fluorescence intensity (a.u.)
AGGAGGCGGGGCGGGGCGGCGGCGGCGGCGGCGGCGCCCGCGGAGTCACCTAGTGCAG	4520 fluorescence intensity (a.u.)
CCATAATCACACTTCAATAGTAGTACTACCACAATTGCATCGGAGTCACCTAGTGCAG	45100 fluorescence intensity (a.u.)
CTGCAGCTTCCTACCTCCATCCATCCATTCATCTTCTTCTCGGAGTCACCTAGTGCAG	3680 fluorescence intensity (a.u.)
CTCGGTAATATTTGGGACGGAGTCACGGAGGGAGTTGTAACGGAGTCACCTAGTGCAG	37000 fluorescence intensity (a.u.)
GGTACCACGCTTTGATGTGCCTTATGTGGCACTTTATTTTCGGAGTCACCTAGTGCAG	5580 fluorescence intensity (a.u.)
GCATCGCAACAACAAGATGATCCATCCACAAGACCAAAGTCGGAGTCACCTAGTGCAG	20200 fluorescence intensity (a.u.)
GTGAGAATTTCTAGGCCATGAGAGCGAACGTGGAGGCTCTCGGAGTCACCTAGTGCAG	4530 fluorescence intensity (a.u.)

Sequence	binding signal
TACCGCGTAGGCAATCATGCCACGCCTGCACATTGAACCGCGGAGTCACCTAGTGCAG	5260 fluorescence intensity (a.u.)
ATTGTACACAACAAATTGAAATTTTCAATTCAACTTTTAACGGAGTCACCTAGTGCAG	43200 fluorescence intensity (a.u.)
TTGTACAGCAGCGTGCTTCCATATGAGGAAATCCACTTCTCGGAGTCACCTAGTGCAG	44200 fluorescence intensity (a.u.)
ATTCATTGTACTGAAAGACTCATATTAGATTGTAACATTTCGGAGTCACCTAGTGCAG	3340 fluorescence intensity (a.u.)
ATGGAACTCTCGCCACGTGGCATCTCAGTTCGTTGCACCCCGGAGTCACCTAGTGCAG	31700 fluorescence intensity (a.u.)
GGCCGTGCTCGTCACGCTCTGCGTCGCCGGCGCCTACTTCCGGAGTCACCTAGTGCAG	3410 fluorescence intensity (a.u.)
GTCCATCCGCGCGCAAGAGGTCTCCACCGCACGATTGAGTCGGAGTCACCTAGTGCAG	3190 fluorescence intensity (a.u.)
ATATATATATATGCAGCATGTACACGTCAAACACTGAAACCGGAGTCACCTAGTGCAG	6320 fluorescence intensity (a.u.)
GCAGGATGATACTGATGACGATGCACTACCAATGCAACGTCGGAGTCACCTAGTGCAG	6730 fluorescence intensity (a.u.)
GTGAAAGTACAATTAGGTTAACACTAACGTGGCTTGACCCCGGAGTCACCTAGTGCAG	6170 fluorescence intensity (a.u.)
GCCAATCCAGTCACTTACCTAACACAAAAGTTTCAAGCCACGGAGTCACCTAGTGCAG	8020 fluorescence intensity (a.u.)
GCAAAGCTCTCAGTTGATGCCGTCTTACGTCTTTTCCATCCGGAGTCACCTAGTGCAG	3320 fluorescence intensity (a.u.)
ATTTCGATGGGTGGGCTTGGGCTGACAAACAATCACGCTCCGGAGTCACCTAGTGCAG	3800 fluorescence intensity (a.u.)
CCTGTGCTGACCTCCTCTACCGTGATGGCCTCCTCGACCTCGGAGTCACCTAGTGCAG	3420 fluorescence intensity (a.u.)
AAGCAACTAATCCACCTTCACCAACCCACTCCCGTCATCGCGGAGTCACCTAGTGCAG	31200 fluorescence intensity (a.u.)
TATAAAACTTTGTAGTTTATCAGTTTTCCATTTAAAATCACGGAGTCACCTAGTGCAG	27100 fluorescence intensity (a.u.)
ATTGCTATGTAGGACTTTTAGCTTATGTGGCACTATATTACGGAGTCACCTAGTGCAG	5030 fluorescence intensity (a.u.)
GCCTCTCCCCTGTGATCCAACCAGCATATGACCTGGATCACGGAGTCACCTAGTGCAG	3900 fluorescence intensity (a.u.)
CGTTTACCACTCATATATCAATGATACGTGGATTCTCATACGGAGTCACCTAGTGCAG	4370 fluorescence intensity (a.u.)
CCCCACCCGTCAGCCAAACCCATCCCACCACGAGGAGTGACGGAGTCACCTAGTGCAG	18600 fluorescence intensity (a.u.)
GTTCATTTTAGGTGTGTTTGGTTGACACAGCTGCTTGCGGCGGAGTCACCTAGTGCAG	4530 fluorescence intensity (a.u.)

Sequence	binding signal
TTGTACCAGCTAACTCATCACCACGCAGGCCAGAGTAGTACGGAGTCACCTAGTGCAG	45900 fluorescence intensity (a.u.)
CATAGAGCTAACAGGATCTCTGGCCCACGTGTCAGATTCTCGGAGTCACCTAGTGCAG	13500 fluorescence intensity (a.u.)
GGCAAACGTGAAGGCGTACGTGTCGTCGGCCGCGTGCCACCGGAGTCACCTAGTGCAG	4340 fluorescence intensity (a.u.)
TTAACAAAGCGAGGGGTGTACGTATTTTGTTCACTCTTTGCGGAGTCACCTAGTGCAG	3180 fluorescence intensity (a.u.)
ACCAGGTGGCTACAGCTGGCTAAATACCCAGTCACTACCACGGAGTCACCTAGTGCAG	3680 fluorescence intensity (a.u.)
CGTAGTACATGTTTATACATTATCCATTTGGAAAGGCTTTCGGAGTCACCTAGTGCAG	3280 fluorescence intensity (a.u.)
TGTCTCGTGGTAATCACGCGGTTACTGTGGTAACCACCTTCGGAGTCACCTAGTGCAG	3140 fluorescence intensity (a.u.)
CCGTGCCAAAGCATACTCTGTCACCCCAACGGCTTTCTCCCGGAGTCACCTAGTGCAG	3370 fluorescence intensity (a.u.)
GCGCCGCCGCGAGATCATCAAGGTGTCGACGCCGCATTCCCGGAGTCACCTAGTGCAG	3500 fluorescence intensity (a.u.)
ATTGATCTTGTTAGTGAGCCTGAAGTATCTTCCTTGGTTGCGGAGTCACCTAGTGCAG	28700 fluorescence intensity (a.u.)
TAAGTCACATGCAAATGATGGATGTCATGGTATTTAGGTGCGGAGTCACCTAGTGCAG	3260 fluorescence intensity (a.u.)
TGTTGAGTTCTTTAACCCACTGGCAAATTCTTAATTGTCACGGAGTCACCTAGTGCAG	21000 fluorescence intensity (a.u.)
GGGGCTATGTTATGAAGCTTGTGTCATTAGCATAGTCCTACGGAGTCACCTAGTGCAG	3710 fluorescence intensity (a.u.)
TCAACCGGGAACTCCCTGCGTAGGAGTACGTCAGTGGCGCCGGAGTCACCTAGTGCAG	3230 fluorescence intensity (a.u.)
AACTCATGGATGACTGTCTATATACCATCCATATATGTTTCGGAGTCACCTAGTGCAG	3340 fluorescence intensity (a.u.)
ACCAAGACGCGGCCCCACTCGTCAGTGACAGAAGAGGCTGCGGAGTCACCTAGTGCAG	3580 fluorescence intensity (a.u.)
CTGGGAATGGCATGCCACGGCTGAGGAAACCGTGCCGACCCGGAGTCACCTAGTGCAG	4510 fluorescence intensity (a.u.)
TCGCTACACCACACGCCACGCCTCTCTCTCCCCTAGCTCGCGGAGTCACCTAGTGCAG	3230 fluorescence intensity (a.u.)
CCTTAAGATTCCTTATGTGGCTTCATGCGACGTGCATGTGCGGAGTCACCTAGTGCAG	4520 fluorescence intensity (a.u.)
GCGCCCGAAGAACCTTGTCGTCGTCACCCACCCGCTCCACCGGAGTCACCTAGTGCAG	4210 fluorescence intensity (a.u.)
CGCGATGCCATGTCCTGCCGACGGCCCCGCATACTCGACACGGAGTCACCTAGTGCAG	3710 fluorescence intensity (a.u.)

Some of the entries above in another layout.
Sequence,binding signal
GCGCCGCCGCGAGATCATCAAGGTGTCGACGCCGCATTCCCGGAGTCACCTAGTGCAG,3500 fluorescence intensity (a.u.)
ATTGATCTTGTTAGTGAGCCTGAAGTATCTTCCTTGGTTGCGGAGTCACCTAGTGCAG,28700 fluorescence intensity (a.u.)
TAAGTCACATGCAAATGATGGATGTCATGGTATTTAGGTGCGGAGTCACCTAGTGCAG,3260 fluorescence intensity (a.u.)
TGTTGAGTTCTTTAACCCACTGGCAAATTCTTAATTGTCACGGAGTCACCTAGTGCAG,21000 fluorescence intensity (a.u.)
GGGGCTATGTTATGAAGCTTGTGTCATTAGCATAGTCCTACGGAGTCACCTAGTGCAG,3710 fluorescence intensity (a.u.)
TCAACCGGGAACTCCCTGCGTAGGAGTACGTCAGTGGCGCCGGAGTCACCTAGTGCAG,3230 fluorescence intensity (a.u.)

(listing goes on)

Sequence	binding signal
CATCACCACCACCATCTCCTCTCGCCTCCTCCTCCGCCGCCGGAGTCACCTAGTGCAG	14700 fluorescence intensity (a.u.)
AACGACCGGTCCGGGTGACACATGCGTTTTGCCCCGGTCACGGAGTCACCTAGTGCAG	4980 fluorescence intensity (a.u.)
GAGAGCTCCCTTTTCGTACCACCTCGCCGCGTCGGCTGCTCGGAGTCACCTAGTGCAG	4870 fluorescence intensity (a.u.)
AACACAAACTCGTTCGCACACGTGGACGCGCCCTCCTGAGCGGAGTCACCTAGTGCAG	8640 fluorescence intensity (a.u.)
CTTGTCTAGTCCAGGACAACTGGGATGATTGAGCACCAGTCGGAGTCACCTAGTGCAG	3170 fluorescence intensity (a.u.)
TAAGTAGAATCGAATACCACCTCAGCCTGATTAATCGGAGCGGAGTCACCTAGTGCAG	3340 fluorescence intensity (a.u.)
GTGAAATGCGCTTGACATGATCGCCCCACGCACACAAACACGGAGTCACCTAGTGCAG	3280 fluorescence intensity (a.u.)
AGTTCAGGGATGTTTGACACCTTTGTCTGAAAGCCAATATCGGAGTCACCTAGTGCAG	3140 fluorescence intensity (a.u.)
ACCCCGTCCCACATTCGGTTCCTCCCTGCGATTGGATCTGCGGAGTCACCTAGTGCAG	3200 fluorescence intensity (a.u.)
GACTGGAGACACGTAATCCAGAAATCCGCCTCCCTAGTAGCGGAGTCACCTAGTGCAG	6980 fluorescence intensity (a.u.)
GAAAGAGATGATGACGTGGCACCCTGATATGTGGGTCCTACGGAGTCACCTAGTGCAG	23200 fluorescence intensity (a.u.)
TGCATGTACGATACTGGAGCTGATCCTCGCCATCATATCCCGGAGTCACCTAGTGCAG	3160 fluorescence intensity (a.u.)
TTGATACCTAAGCTGAGTCAGCATGTGGGCCCCACCTGCACGGAGTCACCTAGTGCAG	13300 fluorescence intensity (a.u.)
CAATGGCCGTAGCGTCAAGCCACGTAACGATAACACGCAACGGAGTCACCTAGTGCAG	9020 fluorescence intensity (a.u.)
CCAGTCCAATCGATTCCAACTCTCTCTAGTGACCACTCGACGGAGTCACCTAGTGCAG	3150 fluorescence intensity (a.u.)
ACCGCCGCGGACGCGGATCCTCATGTCGATGTCCTTGAAGCGGAGTCACCTAGTGCAG	36800 fluorescence intensity (a.u.)
GCTCGCCTGACAAAGTCGGCCACGCAAGCTGAAACACGGACGGAGTCACCTAGTGCAG	6760 fluorescence intensity (a.u.)
CCTGAAGCGAACGCGCGGCGCGCGCGCGCGCGTGGCGGCGCGGAGTCACCTAGTGCAG	4050 fluorescence intensity (a.u.)
GTACTAGTATTTGGCTATAAATTTCTGTGATTACTCAGTGCGGAGTCACCTAGTGCAG	3280 fluorescence intensity (a.u.)
TAGACTAAAATAAACATTCAAATAGCGGGACGTGACACGTCGGAGTCACCTAGTGCAG	3820 fluorescence intensity (a.u.)
GAAGGAGAGGAGGAGAGGAGAGGAGAGAGGGAGGCAGCAGCGGAGTCACCTAGTGCAG	3280 fluorescence intensity (a.u.)
